In PMC13289029:
No constants are given. Whether binding was seen depends on the method and setting. Binding seen in cells or lysates may run through a third protein. Here binding means that the protein was enriched with, or labelled near, the bait; the list need not be complete.

B1: Ftf (protein, UniProt P11701 37-795)
chain: DEANSTQVSSELAERSQVQENTTASSSAAENQDKTEVKETPSTNPAAATVENTDQTTKVITDNAAVESKASKTKDQAATVTKTSASTPEVGQTNEKAKATKEADITTPKNTIDEYGLTEQARKIATEAGINLSSLTQKQVEALNKVKLTSDAQTGHQMTYQEFDKIAQTLIAQDERYAIPYFNAKAIKNMKAATTRDAQTGQIADLDVWDSWPVQDAKTGEVINWNGYQLVVAMMGIPNTNDNHIYLLYNKYGDNNFDHWKNAGSIFGYNETPLTQEWSGSATVNEDGSLQLFYTKVDTSDKNSNNQRLATATVNLGFDDQDVRILSVENDKVLTPEGGDGYHYQSYQQWRSTFTGADNIAMRDPHVIEDENGDRYLVFEASTGTENYQGEDQIYNFTNYGGSSAYNVKSLFRFLDDQDMYNRASWANAAIGILKLKGDKKTPEVDQFYTPLLSSTMVSDELERPNVVKLGDKYYLFTASRLNHGSNNDAWNKANEVVGDNVVMLGYVSDQLTNGYKPLNNSGVVLTASVPADWRTATYSYYAVPVAGSSDTLLMTAYMTNRNEVAGKGKNSTWAPSFLIQVLPDGTTKVLAEMTQQGDWIWDESSRTTDTVGTLDTAYLPGENDGYIDWNVIGGYGLKPHTPGQYQPTVPSTPIHTDDIISFEVSFDGHLVIKPVKVNNDSAGRIDQSRNSGGSLNVAFNVYAGGNISVKPSQKSINNTKETKKAHHVSTEKKQKKGNSFFAALLALFSAFCVSIGFK
B2: GapC (protein, UniProt Q8DVV3 1-337)
chain: MVVKVGINGFGRIGRLAFRRIQNVEGVEVTRINDLTDPNMLAHLLKYDSTQGRFDGNVEVKEGGFEVNGKFVKVSAERDPEQIDWAADGVEIVLEATGFFASKAAAEKHLHANGGAKKVVITAPGGNDIKTIVFNTNHDVLDGTETVISGASCTTNCLAPMAKALHDNFSIKEGLMTTIHAYTGDQMVLDGPHRKGDLRRARAAAANIVPNSTGAAKAIGLVIPELNGKLDGAAQRVPVPTGSVTELVAVLDKKVTVDEVNAAMKAAANESYGYTEDPIVSSDIVGMSFGSLFDATQTKVLDVDGKQLVKVVSWYDNEMSYTSQLVRTLEYFAKIAK
B3: GuaB (protein, UniProt Q8DRR2 1-493)
chain: MSNWDTKFLKKGYTFDDVLLIPAESHVLPNEVSMQTKLAKNLTLNIPIITAAMDTVTDSKMAIAIARAGGLGVVHKNMSIKEQAEEVRKVKRSENGVIIDPFFLTPEHKVSEAEELMQRYRISGVPVVETLDNRKLIGIITNRDMRFISDYETPISEHMTSEKLVTAPVGTDLETAERILHEHRIEKLPLIDEKGRLSGLITIKDIEKVIEFPNAAKDEFGRLLVAGAVGVTSDTFERAEALFEAGADAIVIDTAHGHSAGVLRKIAEIRAHFPDRTLIAGNIATAEGARALYEAGVDVVKVGIGPGSICTTRVVAGVGVPQITAIYDAASIAREYGRTIIADGGIKYSGDIVKALAAGGNAVMLGSMFAGTDEAPGETEIFQGRKFKTYRGMGSIAAMKKGSSDRYFQGSVNEANKLVPEGIEGRVAYKGAAADIVFQMLGGIRSGMGYVGAANLKELHENAQFIEMSGAGLIESHPHDVQITNEAPNYSVQ
B4: LivF (protein, UniProt Q8DSU4 1-236)
chain: MAMLKVENLSVHYGVIQAVKDVSFDVNEGEVVSLIGANGAGKTSILRTISGLVRPSSGEINFLGNDIQKAATRKIVASGLSQVPEGRHVFPGLTVLENLEMGAFLSNNREENLARLKRVFERFPRLEERKNQDAATLSGGEQQMLAMGRALMSQPKLLLLDEPSMGLAPIFIQEIFDIIQDIQKQGTTVLLIEQNAKKALSIADRGYVLETGKIVLSGTGKELLASDEVQKAYLGG
B5: LivG (protein, UniProt Q8DSU3 1-254)
chain: MALLDVKNLTKNFGGLTAVGDVTLELNEGELVGLIGPNGAGKTTLFNLLTGVYEPSEGSVELDGTLLNGKTPYKIASLGLSRTFQNIRLFKNMTVIENVLVGMENTRNPHLFSSFLRLPSFYSNETDLQEKAIELLKIFNLDDKADTLAKNLPYGQQRRLEIVRALATKPKILFLDEPAAGMNPQETAELTELIRQIKEEFSITIMLIEHDMSLVMDVTERIYVLEYGRLIAQGTPEEIKHNKRVIEAYLGGEA
B6: FtsZ (protein, UniProt Q8DVD9 1-434)
chain: MAFSFDAASVQGAVIKVIGVGGGGGNAINRMIDEGVAGVEFIAANTDIQALSSSKAETVIQLGPKLTRGLGAGGQPEIGRKAAEESEEALTEALTGADMVFITAGMGGGSGTGAAPVIARIAKGLGSLTVAVVTRPFGFEGSKRGNYAIEGINELRDEVDTLLIISNNNLLEIVDKKTPLLEALSEADNVLRQGVQGITDLITSPGLINLDFADVKTVMASKGNALMGIGIGTGEERVVEAARKAIYSPLLETTIDGAEDVIVNVTGGLDMTLTEAEEASEIVNQAAGHGVNIWLGTSIDDSMKDEIRVTVVATGVRPDKADQVSGIRRQASSYTQPRAQQQAPSSNSAQPNFERRQNFDFDLNESPEMPAAEPQQTQSSSEPQQSAFGDWNLRRENIARPTEGEIDSQLKMSSFSADSDDDDELETPPFFKNR
B7: GroEL (protein, UniProt Q8CWW6 1-542)
chain: MAKDIKFSADARSSMVRGVDILADTVKVTLGPKGRNVVLEKSFGSPLITNDGVTIAKEIELEDHFENMGAKLVSEVASKTNDIAGDGTTTATVLTQAIVREGLKNVTAGANPIGIRRGIETAVATAVDELKAIAQPVSGKEAIAQVAAVSSRSEKVGEYVSEAMEKVGNDGVITIEESRGMETELDVVEGMQFDRGYLSQYMVTDNEKMVADLENPYLLITDKKISNIQDVLPLLEEVLKTNRPLLIIADDVDGEALPTLVLNKIRGTFNVVAVKAPGFGDRRKAMLEDIAVLTGGTVITEDLGLELKDTTIDALGQAARVTVDKDSTVIVEGSGGKEAVANRVNLIKSQIETATSDFDREKLQERLAKLSGGVAVIKVGAATETELKEMKLRIEDALNATRAAVEEGIVAGGGTALINVIEKVAALDLTDDAATGRNLVLRALEEPVRQIAKNAGYEGSVIIDKLKNSSAGTGFNAANGEWVDMIDAGIIDPVKVTRSALQNAASVASLILTTEAVVADHPAPEAPAAAPAMDPSMMGGMM
B8: GlmM (protein, UniProt Q8DTC6 1-449)
chain: MGKYFGTDGVRGEANVELTPELAFKLGRFGGYVLSQHEPDRPRVFVARDTRISGELLESALVAGLLSVGIEVYKLGVLATPGVSYLVRTEQASAGVMISASHNPALDNGIKFFGGDGFKLADEQEAEIEALLDAKEDDLPRPSAQGLGMVVDYPEGLRKYEKFLVSTGSDLEGMKIAIDAANGAASYSARQVFLDLNADITVIGEEPDGLNINDGVGSTHPEQLQNLVKGSDFVIGLAFDGDSDRLIAVDENGEIVDGDKIMYIIGKYLSEKGRLSKNTIVTTVMSNLGFHKALDRENINKKITAVGDRYVVEEMRRSGYNLGGEQSGHVIIMDYNTTGDGQLTAIQLTKVMKETGKTLSELANEVTIYPQKLVNIYVKNDMKNKAMEVPMIAQIIEKMEAEMAGNGRILVRPSGTEPLLRVMAEAPSTEEVNYYVDTIAKVVKTEIGI

Columns and labels:
[1] = biological target: DacA-FLAG (Streptococcus mutans UA159); experiment: affinity purification with mass spectrometry; anti-FLAG M2 affinity gel on lysate of the DacA-FLAG strain, FLAG peptide elution; whether these hits came from the non-crosslinked or the crosslinked samples is not given
[2] = biological target: DacA-FLAG (Streptococcus mutans UA159); experiment: affinity purification with mass spectrometry; crosslinked; cells in PBS with 1% formaldehyde 20 min at room temperature, quenched with 0.125 M glycine, then lysate on anti-FLAG M2 affinity gel 3 h at 4°C, FLAG peptide elution; UA159 as no-FLAG control; hits at least twofold enriched with spectral counts >10

Row | Binder | binding [1] | binding [2]
1 | B1 | binds | –
2 | B2 | binds | –
3 | B3 | binds | –
4 | B4 | binds | –
5 | B5 | binds | –
6 | B6 | binds | –
7 | B7 | binds | –
8 | B8 | – | binds
